Measurements taken from article PMC8238948, “Potent inhibitors of toxic alpha-synuclein identified via cellular time-resolved FRET biosensors” (NPJ Parkinson's Disease, 2021).
Counter-ions that a name gives are not always drawn.

Test system: labeled αSN (monomeric)
Assay: smFRET measurements of αSN monomer conformation
Conditions: constructs 9–72 and 54–130
Method: SmFRET experiments were performed using two different labeled αSN constructs (residues 9–72 and residues 54–130) that report on intra-monomeric FRET (e.g., monomer conformation) of the N-terminal and C-terminal domains of αSN. […] We were not able to evaluate RO with smFRET, due to interactions of RO with the AlexaFluor-594 label.
Single-molecule FRET measurements were carried out using ~30 pM of labeled αSN in 20 mM Tris pH 7.4 and 50 mM NaCl in 8-chambered Nunc coverslips (ThermoFisher) passivated with poly(ethylene glycol) poly(L-lysine) to reduce protein adsorption to the chambers. Measurements were made on a MicroTime 200 time-resolved confocal microscope (Picoquant) as described previously. Laser power was adjusted to ~30 μW before sample illumination. Fluorescence emission was collected through the objective and passed through a 150-μm diameter pinhole. Photons were separated by an HQ585LP dichroic in combination with ET525/50M and HQ600LP filters and detected by avalanche photodiodes. Photon traces were collected in 1-ms time bins for 1 h. A cutoff of 25 counts/ms was applied to discriminate between bursts arising from fluorescently labeled protein and background noise. The FRET efficiency (Eeff) was calculated using the SymphoTime 64 software. SmFRET histograms were fit with Gaussian distributions to determine the peak Eeff values. […]

| SMILES | effect on monomeric conformation, smFRET histograms |
| --- | --- |
| COC(=O)C1=C(C)NC(C)=C([N+](=O)[O-])C1c1ccccc1C(F)(F)F (racemic) [BAY, (±)-Bay K 8644] | do not modulate monomeric conformation |
| CN(C)[C@@H]1C(O)=C(C(N)=O)C(=O)[C@@]2(O)C(O)=C3C(=O)c4c(O)ccc(Cl)c4[C@@H](O)[C@H]3C[C@@H]12 [DEM, Demeclocycline HCl] | do not modulate monomeric conformation |
